Assay results taken from publication PMC9724678.
No constants are given. Whether binding was seen depends on the method and setting. In cells and extracts the contact can be indirect. Here binding means that the protein was enriched with, or labelled near, the bait; the list need not be complete.

Amino acid sequences for entries named in this document (tags omitted). Residues count along the entry.
UniProt P27824, residues 21-592: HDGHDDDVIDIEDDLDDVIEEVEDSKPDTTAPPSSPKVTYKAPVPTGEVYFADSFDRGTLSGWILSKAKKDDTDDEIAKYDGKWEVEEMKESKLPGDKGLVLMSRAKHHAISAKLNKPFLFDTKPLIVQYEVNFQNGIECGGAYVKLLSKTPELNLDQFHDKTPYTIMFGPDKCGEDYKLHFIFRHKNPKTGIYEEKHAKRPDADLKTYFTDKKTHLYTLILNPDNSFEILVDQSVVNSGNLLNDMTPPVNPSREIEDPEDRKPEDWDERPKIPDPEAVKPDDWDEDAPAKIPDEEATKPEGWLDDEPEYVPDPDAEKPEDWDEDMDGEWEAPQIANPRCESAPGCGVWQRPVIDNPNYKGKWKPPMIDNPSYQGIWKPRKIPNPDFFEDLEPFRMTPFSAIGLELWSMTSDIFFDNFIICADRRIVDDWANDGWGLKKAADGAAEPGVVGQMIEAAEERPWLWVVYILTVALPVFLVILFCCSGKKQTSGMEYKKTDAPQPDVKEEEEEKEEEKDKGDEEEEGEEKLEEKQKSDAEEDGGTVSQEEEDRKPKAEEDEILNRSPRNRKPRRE
UniProt Q9UHD2: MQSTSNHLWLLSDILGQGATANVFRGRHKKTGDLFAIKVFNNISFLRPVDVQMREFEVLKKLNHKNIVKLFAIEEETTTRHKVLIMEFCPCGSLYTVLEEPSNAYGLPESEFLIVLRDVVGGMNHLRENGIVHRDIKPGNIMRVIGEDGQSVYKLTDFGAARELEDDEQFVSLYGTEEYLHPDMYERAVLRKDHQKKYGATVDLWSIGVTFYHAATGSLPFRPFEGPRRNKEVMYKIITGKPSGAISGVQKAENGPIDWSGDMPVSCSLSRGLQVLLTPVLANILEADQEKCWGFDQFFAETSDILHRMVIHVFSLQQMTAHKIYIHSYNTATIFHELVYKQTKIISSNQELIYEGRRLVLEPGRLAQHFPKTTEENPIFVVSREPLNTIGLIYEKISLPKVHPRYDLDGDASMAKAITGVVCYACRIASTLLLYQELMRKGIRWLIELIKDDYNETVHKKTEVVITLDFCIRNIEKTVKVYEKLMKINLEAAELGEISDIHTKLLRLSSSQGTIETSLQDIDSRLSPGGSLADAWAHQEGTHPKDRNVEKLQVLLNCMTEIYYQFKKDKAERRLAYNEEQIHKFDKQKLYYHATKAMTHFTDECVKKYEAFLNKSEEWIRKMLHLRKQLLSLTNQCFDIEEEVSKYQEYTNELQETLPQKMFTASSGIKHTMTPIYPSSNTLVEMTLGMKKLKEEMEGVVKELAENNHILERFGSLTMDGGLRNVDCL
UniProt Q5T4S7: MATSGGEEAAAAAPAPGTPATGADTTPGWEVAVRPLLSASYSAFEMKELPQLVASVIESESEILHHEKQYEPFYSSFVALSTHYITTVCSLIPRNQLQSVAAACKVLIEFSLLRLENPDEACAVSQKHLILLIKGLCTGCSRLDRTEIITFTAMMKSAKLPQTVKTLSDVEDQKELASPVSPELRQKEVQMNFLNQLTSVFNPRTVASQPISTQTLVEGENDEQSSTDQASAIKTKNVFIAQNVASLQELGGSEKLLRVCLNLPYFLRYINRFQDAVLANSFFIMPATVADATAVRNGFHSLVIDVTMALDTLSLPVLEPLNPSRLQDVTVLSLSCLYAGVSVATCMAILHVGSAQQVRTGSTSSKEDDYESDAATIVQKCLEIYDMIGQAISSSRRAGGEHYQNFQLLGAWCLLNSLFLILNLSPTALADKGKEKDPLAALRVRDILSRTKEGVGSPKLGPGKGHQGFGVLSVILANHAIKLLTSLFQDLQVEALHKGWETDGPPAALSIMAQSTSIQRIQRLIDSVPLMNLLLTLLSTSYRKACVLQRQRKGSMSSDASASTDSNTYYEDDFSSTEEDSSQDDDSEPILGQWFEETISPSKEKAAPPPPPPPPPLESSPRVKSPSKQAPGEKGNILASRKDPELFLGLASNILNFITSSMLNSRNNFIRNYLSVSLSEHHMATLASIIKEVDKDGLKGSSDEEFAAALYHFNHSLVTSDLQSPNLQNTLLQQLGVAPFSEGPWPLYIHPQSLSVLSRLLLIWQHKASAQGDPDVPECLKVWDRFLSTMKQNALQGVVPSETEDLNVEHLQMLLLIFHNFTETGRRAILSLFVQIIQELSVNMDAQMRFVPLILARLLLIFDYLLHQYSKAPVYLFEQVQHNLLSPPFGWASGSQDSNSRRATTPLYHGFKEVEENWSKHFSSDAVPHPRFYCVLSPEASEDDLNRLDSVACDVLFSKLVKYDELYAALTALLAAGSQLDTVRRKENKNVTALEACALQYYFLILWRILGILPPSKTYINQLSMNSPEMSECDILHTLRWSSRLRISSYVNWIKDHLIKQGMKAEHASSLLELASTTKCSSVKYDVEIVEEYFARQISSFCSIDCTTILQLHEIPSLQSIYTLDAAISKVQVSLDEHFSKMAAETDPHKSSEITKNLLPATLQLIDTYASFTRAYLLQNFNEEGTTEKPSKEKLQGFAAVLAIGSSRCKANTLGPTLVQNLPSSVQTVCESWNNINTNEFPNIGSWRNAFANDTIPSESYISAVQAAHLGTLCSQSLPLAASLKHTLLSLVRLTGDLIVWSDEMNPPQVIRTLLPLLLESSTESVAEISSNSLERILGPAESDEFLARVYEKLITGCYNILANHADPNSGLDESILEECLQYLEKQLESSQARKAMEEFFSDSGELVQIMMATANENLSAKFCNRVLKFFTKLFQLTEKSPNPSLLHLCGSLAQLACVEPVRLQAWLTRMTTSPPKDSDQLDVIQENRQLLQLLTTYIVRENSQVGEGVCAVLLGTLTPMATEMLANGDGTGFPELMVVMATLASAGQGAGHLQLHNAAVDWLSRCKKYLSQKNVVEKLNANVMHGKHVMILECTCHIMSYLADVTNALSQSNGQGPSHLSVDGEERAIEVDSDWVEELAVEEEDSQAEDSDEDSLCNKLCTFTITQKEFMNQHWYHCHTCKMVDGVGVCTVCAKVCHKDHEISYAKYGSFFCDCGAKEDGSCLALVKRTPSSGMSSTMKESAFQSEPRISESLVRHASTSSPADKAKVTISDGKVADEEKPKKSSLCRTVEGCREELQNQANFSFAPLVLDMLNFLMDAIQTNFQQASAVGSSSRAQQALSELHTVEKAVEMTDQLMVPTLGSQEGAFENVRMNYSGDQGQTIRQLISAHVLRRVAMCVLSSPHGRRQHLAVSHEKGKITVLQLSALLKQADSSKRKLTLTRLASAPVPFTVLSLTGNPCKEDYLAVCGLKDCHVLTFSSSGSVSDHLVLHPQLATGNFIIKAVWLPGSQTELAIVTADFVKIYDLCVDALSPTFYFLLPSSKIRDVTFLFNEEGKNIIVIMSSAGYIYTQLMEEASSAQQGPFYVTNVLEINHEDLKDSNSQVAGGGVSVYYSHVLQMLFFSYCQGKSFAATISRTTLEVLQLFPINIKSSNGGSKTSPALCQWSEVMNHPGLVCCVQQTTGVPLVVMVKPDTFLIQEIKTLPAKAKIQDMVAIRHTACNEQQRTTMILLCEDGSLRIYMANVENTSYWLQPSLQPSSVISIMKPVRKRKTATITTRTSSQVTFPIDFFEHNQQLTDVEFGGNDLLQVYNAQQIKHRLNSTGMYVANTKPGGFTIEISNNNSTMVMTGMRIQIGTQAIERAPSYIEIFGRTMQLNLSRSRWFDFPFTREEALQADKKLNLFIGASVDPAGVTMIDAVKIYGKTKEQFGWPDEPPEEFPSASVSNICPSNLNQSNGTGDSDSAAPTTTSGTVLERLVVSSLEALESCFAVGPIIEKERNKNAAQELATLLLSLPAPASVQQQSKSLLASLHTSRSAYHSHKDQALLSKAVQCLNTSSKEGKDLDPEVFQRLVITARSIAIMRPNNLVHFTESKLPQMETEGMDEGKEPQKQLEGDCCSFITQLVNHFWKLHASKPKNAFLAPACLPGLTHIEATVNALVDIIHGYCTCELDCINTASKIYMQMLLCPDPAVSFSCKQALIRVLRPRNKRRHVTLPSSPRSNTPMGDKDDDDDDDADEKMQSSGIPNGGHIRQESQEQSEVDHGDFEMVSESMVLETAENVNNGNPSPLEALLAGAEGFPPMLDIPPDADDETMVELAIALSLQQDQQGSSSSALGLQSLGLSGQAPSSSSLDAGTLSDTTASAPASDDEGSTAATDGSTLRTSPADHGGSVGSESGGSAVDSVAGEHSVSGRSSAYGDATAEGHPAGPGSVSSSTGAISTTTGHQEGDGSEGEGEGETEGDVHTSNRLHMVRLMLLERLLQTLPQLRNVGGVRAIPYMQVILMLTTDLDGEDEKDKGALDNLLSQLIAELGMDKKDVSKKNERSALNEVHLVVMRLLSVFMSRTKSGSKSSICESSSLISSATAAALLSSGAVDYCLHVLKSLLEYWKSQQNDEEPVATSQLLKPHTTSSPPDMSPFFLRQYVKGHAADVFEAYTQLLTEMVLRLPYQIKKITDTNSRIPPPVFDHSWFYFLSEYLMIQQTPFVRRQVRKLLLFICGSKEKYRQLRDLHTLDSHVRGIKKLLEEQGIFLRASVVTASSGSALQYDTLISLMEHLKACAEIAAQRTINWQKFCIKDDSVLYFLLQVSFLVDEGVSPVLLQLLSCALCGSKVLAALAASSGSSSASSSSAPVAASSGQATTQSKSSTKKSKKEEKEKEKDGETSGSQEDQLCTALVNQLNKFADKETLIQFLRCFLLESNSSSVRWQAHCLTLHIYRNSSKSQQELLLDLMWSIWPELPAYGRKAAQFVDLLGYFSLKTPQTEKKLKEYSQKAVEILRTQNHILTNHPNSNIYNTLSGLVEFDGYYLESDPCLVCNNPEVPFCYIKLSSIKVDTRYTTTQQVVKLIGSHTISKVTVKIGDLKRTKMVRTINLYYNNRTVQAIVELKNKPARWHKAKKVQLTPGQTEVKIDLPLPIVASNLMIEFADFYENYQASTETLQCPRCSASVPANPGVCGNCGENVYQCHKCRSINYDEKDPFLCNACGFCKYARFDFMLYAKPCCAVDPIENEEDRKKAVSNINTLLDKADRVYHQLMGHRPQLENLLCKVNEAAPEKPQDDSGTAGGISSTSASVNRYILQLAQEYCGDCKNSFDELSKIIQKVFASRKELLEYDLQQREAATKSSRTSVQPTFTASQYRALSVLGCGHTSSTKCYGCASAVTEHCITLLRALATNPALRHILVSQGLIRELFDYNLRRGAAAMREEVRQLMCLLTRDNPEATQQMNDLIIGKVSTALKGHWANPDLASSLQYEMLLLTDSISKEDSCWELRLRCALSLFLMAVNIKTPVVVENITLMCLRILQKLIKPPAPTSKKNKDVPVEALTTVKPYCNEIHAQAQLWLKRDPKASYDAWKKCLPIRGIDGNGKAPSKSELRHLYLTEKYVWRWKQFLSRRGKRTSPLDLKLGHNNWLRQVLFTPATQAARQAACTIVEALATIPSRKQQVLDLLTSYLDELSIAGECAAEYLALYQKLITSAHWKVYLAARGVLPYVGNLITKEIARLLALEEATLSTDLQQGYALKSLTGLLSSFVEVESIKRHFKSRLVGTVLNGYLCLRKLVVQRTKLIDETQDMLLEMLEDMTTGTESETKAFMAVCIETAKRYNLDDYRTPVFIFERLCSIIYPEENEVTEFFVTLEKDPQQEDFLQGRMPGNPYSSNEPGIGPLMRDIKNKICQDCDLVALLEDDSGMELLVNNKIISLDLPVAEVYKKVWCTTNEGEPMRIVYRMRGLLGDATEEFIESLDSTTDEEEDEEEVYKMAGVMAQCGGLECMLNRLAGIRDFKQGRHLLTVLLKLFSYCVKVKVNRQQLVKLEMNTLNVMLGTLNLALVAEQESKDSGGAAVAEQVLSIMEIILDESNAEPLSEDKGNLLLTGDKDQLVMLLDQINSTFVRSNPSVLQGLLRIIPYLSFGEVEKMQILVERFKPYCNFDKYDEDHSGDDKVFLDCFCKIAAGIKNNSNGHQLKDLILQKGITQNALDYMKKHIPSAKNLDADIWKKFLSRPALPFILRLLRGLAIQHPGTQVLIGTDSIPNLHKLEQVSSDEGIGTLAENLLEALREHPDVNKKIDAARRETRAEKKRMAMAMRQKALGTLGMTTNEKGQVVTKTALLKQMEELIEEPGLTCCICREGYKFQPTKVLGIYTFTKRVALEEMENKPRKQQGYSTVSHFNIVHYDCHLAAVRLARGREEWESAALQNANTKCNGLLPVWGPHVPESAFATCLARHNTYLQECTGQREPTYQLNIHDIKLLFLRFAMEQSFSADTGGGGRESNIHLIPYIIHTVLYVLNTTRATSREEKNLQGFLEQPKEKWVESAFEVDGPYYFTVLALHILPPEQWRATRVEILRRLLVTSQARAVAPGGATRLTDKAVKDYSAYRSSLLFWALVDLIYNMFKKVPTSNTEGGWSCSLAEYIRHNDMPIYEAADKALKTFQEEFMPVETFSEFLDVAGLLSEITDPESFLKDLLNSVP

Target: GFP-T6BP (TAX1BP1 / TRAF6-binding protein fused to GFP) (UniProt Q86VP1)
Test: affinity purification with mass spectrometry; GFP-T6BP or GFP alone from transfected HeLa-CIITA lysate (1% Triton X-100 buffer) on GFP-Trap agarose magnetic beads, 1 h 4°C, on-bead digestion, LC-MS/MS; three biological replicates; fold change ≥10, SAINT ≥0,8

Row | Substance | binding
1 | COPB1 (from UniProt P53618 1-953) | binds
2 | Calnexin (CANX), endogenous (from UniProt P27824 21-592) | binds
3 | autophagy receptor p62 (SQSTM1, Sequestosome-1) (from UniProt Q13501 1-440) | binds
4 | kinase TBK1 (TANK-binding kinase-1) (from UniProt Q9UHD2 1-729) | binds

The remaining lines, values ahead:

Row | binding | Substance
5 | binds | ATP6V0A1, a subunit of the vATPase (from UniProt Q93050 1-837)
6 | binds | BAG6 (from UniProt P46379 1-1132)
7 | binds | E3 Ub-ligase UBR1 (from UniProt Q8IWV7 1-1749)
8 | binds | E3 Ub-ligase UBR2 (from UniProt Q8IWV8 1-1755)
9 | binds | E3 Ub-ligase UBR4 (from UniProt Q5T4S7 1-5183)
